Source: the supplement of paper PMC10338343
± gives the standard deviation. The list shows a part of the results, in another mix than the full data. Many of these values have a large error.

These sequences were tested on MIWI (PIWIL1) piRISC loaded with Kctd7 piRNA (30 nt) (assay: pre-steady-state target cleavage rate (min^-1); MIWI and MILI are mouse PIWI proteins and EfPiwi is from a freshwater sponge; tags in brackets are library labels; higher = faster piRNA-guided slicing of the target). Conditions: guide: Kctd7 piRNA 5'p-UGUUAAUCUCUCAGAGAAGGUGACAGUGAU; auxiliary factor: 500 nM mouse GTSF1.
Protocol: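 Cleave-'n-Seq: a library of target RNAs (target site embedded in constant flanks, ACAGCATTCCGCGTTAGTGATATCCG... 5' flank; DNA-blocked outside the site) at 0.1 nM was incubated with 1 nM active mouse MILI or MIWI piRISC (synthetic 5'-monophosphorylated piRNA guide) with or without 500 nM mouse GTSF1 at 33 °C for 1 min to 16 h. Uncleaved targets were sequenced and normalised to non-target controls, and the pooled three trials were fitted to a burst-and-steady-state model to give the pre-steady-state cleavage rate (min^-1; k3 is constrained to at most 1e-4). Sequence is the target site only; target names encode pairing extent (gX:gY) and contiguous / 1-mismatch / 2-mismatch / bulge geometry. Fits with R² ≤ 0 are excluded.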

Sequence	pre-steady-state target cleavage rate
UAGACUGAGUCCUUCUCUGAGAGAUUUUGA	0.000519 ± 0.01
UACACUGUCACCUUCUCUGAGAGAUUAACU [g2:g28:cont:t1U]	0.494 ± 0.059
UAGUGACAGACCUUCACUGAGAGAUUAUGA	0.00106 ± 0.014
UAGUGACAGAGCUACUCUGAGAGAUUAACA	0.000961 ± 0.0069
UAGUGACACACCUUCUCUGAGAGAAAAUGA	0.00219 ± 0.0053
UAGUGACAGACCUUCACUGAGAGUUUAACA	0.0305 ± 0.011
UAGUGACAGUGGAAGUCUGAGAUAUUAACA	< 0.0001
UAGUCUGUCACCUUCUCUGACUCAUUAAGA	0.000921 ± 0.0048
UAGUGACAGUGGUCUCUCUGAGAGAUUAACA	0.000533 ± 0.013
UAGUCUCUCACCUUCUGUGAGAGAUUAACA	0.00482 ± 0.0046
UAGUGACAGUGGAACUCUGAAGAGAUUAACA	0.000175 ± 0.03
UAGUGACUCACCUUCUCUGAGUCUUUUUGA	0.000431 ± 0.026
UUCACGUCACCUUCUCUGAGAGAUUAACA	0.702 ± 0.03
UAGUGACAGACCUUCUCUAGAGAUUAACA	0.00339 ± 0.0054
UAGUGACAGUCCUUUCUGAGAGAUUAACA	0.00238 ± 0.0037
AUCACUGUCACCUUCUCUGAGAGAUUAACU [g2:g30:cont:t1U]	0.526 ± 0.057
UAGUGACUCACCUUGAGUGAGAGAUUAUGA	0.000463 ± 0.023
UAGUCUGUCAGGUUCUCUGAGAGAUAUUGA	0.000411 ± 0.013
UAGUGAGUCACCUUGACUGAGAGAUAUUGA	0.000664 ± 0.011
UAGUGACAGUCCUAGUCUGAGAGAUUAACA	0.00106 ± 0.0076
UAGACUGUCACCUUCUCUGAGAGAUUAACC [g2:g27:cont:t1C]	0.322 ± 0.03
UAGUCUGUCACCUUCUCACUGAGAUAUUGA	0.00131 ± 0.0076
UUCACUGUCUCCUUCUCUGAGAGAUUAUGA	0.122 ± 0.034
UAGUGACAGACCUUCUCUGUCAGAUUAACA	0.00289 ± 0.0044

Sequence	pre-steady-state target cleavage rate
UUCACUGUCACCUUCUCUGACUCAUUUUGA	0.00173 ± 0.0046
UAGUGACACACCUUCUCUCUCAGAUUUUGA	0.000782 ± 0.016
UAGUGACUCACCUUGUCUGAGAGAUAUUGA	0.000937 ± 0.0068
UAGUGACAGUGGAUCUCUGAGACAUUUACA	0.000148 ± 0.029
UAGUGACAGACCUUCUCUGACACAUUAACA	0.00122 ± 0.0077
UAGUGACAGUCCUUCUCUCUCAGAUUAACA	0.000536 ± 0.013
UAGUGACAGUGGAAGAGACAGAGAAUAUCA	0.000355 ± 0.022
UAGUGACUCACCUUCUCUGAGUGAUAAACA	0.0392 ± 0.007
UAGACUGUCACCUUCUCUGAAGAGAUUAACA	0.00161 ± 0.0047
UAGUGACUGACCUUCUCUGAGAGAUUAUGA	0.00985 ± 0.0048
UAGUGACAGUCCAUCACUGAGAGAUUAACA	0.00137 ± 0.0069
UAGUGACAGUCCUUCUCUGAGUCAUUAAGA	0.000113 ± 0.023
UAGUGAGUCACCUUGAGUGAGAGAUAUUGA	0.00107 ± 0.007
UAGACUGUCGCCUUCUCUGAGAGAUUAACA	0.822 ± 0.064
UAGUGUGUCACGAUCUCUGAGAGAUUUUGA	0.0018 ± 0.0054
UACACUGUCACGAUCUCUGAGAGAUAUUGA	0.000865 ± 0.01
UAGACUGUCAGCUUCUCUGAGAGUUUAACA	0.0686 ± 0.011
UAGACUGUCACCUUCUCACAGAGAUUAUGA	0.00106 ± 0.0065
UAGUGACAGUGCUUCUCUGAGAGAAUUAACA	0.00265 ± 0.0031
UAGUGACACACCUUCUCUGAGACUUUUUGA	0.000268 ± 0.019
UAGUGACAGUCCUACUCUGAGUGAUUAACA	0.0011 ± 0.0069
UAGUGACAGUGCUUCUCUGAGUGAUUUACA	0.000108 ± 0.022
UAGUGACAGUGCUUCUCUGAGGAGAUUAACA	0.000196 ± 0.015
UAGUGACAGUGGACCUCUGAGAGAUUAACA	0.000319 ± 0.012

Some of the entries above, reformatted.
Sequence,pre-steady-state target cleavage rate
UAGACUGUCAGCUUCUCUGAGAGUUUAACA,0.0686 ± 0.011
UAGACUGUCACCUUCUCACAGAGAUUAUGA,0.00106 ± 0.0065
UAGUGACAGUGCUUCUCUGAGAGAAUUAACA,0.00265 ± 0.0031
UAGUGACACACCUUCUCUGAGACUUUUUGA,0.000268 ± 0.019

(continued)

Sequence	pre-steady-state target cleavage rate
UAGUGACAGUGGAAGAGACAGAGAUUAUACA	0.000229 ± 0.037
UAGUGACUCACCUUCUCUGAGGAGAUUAACA	0.00114 ± 0.0084
UAGACUGUCACCUUCUCUGACAGAUUAUCA	0.00246 ± 0.0026
UAGUGACACACCUUCUCUGAUGAGAUUAACA	0.0017 ± 0.0056
UAGUGACAGUGCGUCUCUGAGAGAUUAACA	0.000761 ± 0.0065
AUCACUGUCACCUUCUCUGUCUCUAAUUGA [g12:g30:cont:t1A]	0.00282 ± 0.0043
UAGUGACAGACCUUCUCUGACUCAUUAACA	0.00115 ± 0.01
UAGUGACAGUGCUUCUCUGACACAUUAACA	0.000202 ± 0.031
UUGUCUGUCACCUUCUCUGAGAGAUUAACA	0.691 ± 0.031
UAGUCUGUCAGGUUCUCUGAGAGAUUAUGA	0.000884 ± 0.0088
AUCACUGUCACCUUCUCUGACUCUAAUUGA [g11:g30:cont:t1A]	0.00199 ± 0.0044
UAGUGACAGUGGAUCUCUGAGAGAUUAACU [g2:g17:cont:t1U]	0.000707 ± 0.0096
UAGUGACAGUGGAAGAGAGAGAGGAUUAACA	0.000336 ± 0.02
GUCACUGUCACCUUCUCUGAGAGAUUAACA	0.763 ± 0.04
UAGUGAGUCACCUUCUCUGAGUGAUAUUGA	0.00101 ± 0.0082
UAGUGACUGUGCUUCUCUGAGAGAUUAUGA	0.000213 ± 0.019
UAGUGACUCACCUUCUCUGACGAGAUUAACA	0.00145 ± 0.0048
UAGUGACAGUGGAAGAGUGACUCAUUAACA	0.0005 ± 0.012
UAGACUGUCACCUUCUCUGUCAGAUUAAGA	0.000825 ± 0.0062
UAGUGACAGACCUUCUCUGAGACUUUAACA	0.000805 ± 0.009
UUCACUGUCACCUUCUCUCAGAGAUUUACA	0.0958 ± 0.015
UAGUGACAGUCCUUCCUCUGAGAGAUUAACA	0.27 ± 0.027
